The results are deposited in PubChem (AID504749; NCATS, 2011).

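Malaria parasite (P. falciparum) lines kept in red blood cells; parasite DNA is measured by SYBR Green fluorescence after lysis, 72 h after compound addition.
Each compound was titrated across a series from about 0.000037 to 29 µM.
The number is the fitted AC50, the concentration giving a half-maximal change in signal; a lower value means higher potency, whether the curve shows a decrease or an increase.
Calls follow the curve class and fit quality: every row here is inconclusive, covering signal-raising curves and weak, poorly fitted, partial or highest-dose-only inhibition curves.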

Values are in nM.
Every entry below has the call inconclusive.
These entries are mostly ones the record files as inconclusive; other results of the assay are not listed here.
A potency from a partial, single-point or poor curve is only a rough figure.

With CSCCC(N)C(=O)O (stereo not drawn) [PC26] the assay gave fitted potency 19011 nM (inhibitor, single point). With CSCCC(N)C(=O)O (stereo not drawn) [CP203] the assay gave fitted potency 19011 nM (inhibitor, single point). Result for CSCCC(N)C(=O)O (stereo not drawn) [CP194] was fitted potency 16944 nM (inhibitor, single point). CSCCC(N)C(=O)O (stereo not drawn) [CP291] gave fitted potency 19011 nM (inhibitor, single point). For CSCCC(N)C(=O)O (stereo not drawn) [DIV30] the result was fitted potency 16944 nM (inhibitor, single point). For CSCCC(N)C(=O)O (stereo not drawn) [CP215] the result was fitted potency 19011 nM (inhibitor, single point). For CSCCC(N)C(=O)O (stereo not drawn) [CP211] the result was fitted potency 11995 nM (inhibitor, single point).

Result for CSCCC(N)C(=O)O (stereo not drawn) [P93_24] was fitted potency 3981 nM (inhibitor, single point). CSCCC(N)C(=O)O (stereo not drawn) [CP201] gave fitted potency 21331 nM (inhibitor, partial curve, poor fit). For CCCCOc1ccc(CC(=O)NO)cc1 [CP217] the result was fitted potency 2818 nM (inhibitor, partial curve). CCCCOc1ccc(CC(=O)NO)cc1 [CP265] read fitted potency 3162 nM (inhibitor, partial curve). For CCCCOc1ccc(CC(=O)NO)cc1 [PC26] the result was fitted potency 4548 nM (inhibitor, single point). Result for CCCCOc1ccc(CC(=O)NO)cc1 [AA1029] was fitted potency 3981 nM (inhibitor, partial curve). Result for CCCCOc1ccc(CC(=O)NO)cc1 [CP194] was fitted potency 4548 nM (inhibitor, partial curve).

For CCCCOc1ccc(CC(=O)NO)cc1 [CP266] the result was fitted potency 4548 nM (inhibitor, partial curve, poor fit). With CCCCOc1ccc(CC(=O)NO)cc1 [FAB9] the assay gave fitted potency 2239 nM (inhibitor, partial curve). For CCCCOc1ccc(CC(=O)NO)cc1 [CP215] the result was fitted potency 2558 nM (inhibitor, partial curve). Result for CCCCOc1ccc(CC(=O)NO)cc1 [CP315] was fitted potency 4548 nM (inhibitor, partial curve). CCCCOc1ccc(CC(=O)NO)cc1 [CP269] read fitted potency 5726 nM (inhibitor, partial curve). For C[C@@H]1c2cccc(O)c2C(O)=C2C(=O)[C@@]3(O)C(O)=C(C(N)=O)C(=O)[C@@H](N(C)C)[C@@H]3[C@@H](O)[C@@H]21 [CP252] the result was fitted potency 17782 nM (inhibitor, single point). For C[C@@H]1c2cccc(O)c2C(O)=C2C(=O)[C@@]3(O)C(O)=C(C(N)=O)C(=O)[C@@H](N(C)C)[C@@H]3[C@@H](O)[C@@H]21 [SC27B] the result was fitted potency 10000 nM (inhibitor, partial curve).

C[C@@H]1c2cccc(O)c2C(O)=C2C(=O)[C@@]3(O)C(O)=C(C(N)=O)C(=O)[C@@H](N(C)C)[C@@H]3[C@@H](O)[C@@H]21 [ECU] gave fitted potency 17782 nM (inhibitor, single point). C[C@@H]1c2cccc(O)c2C(O)=C2C(=O)[C@@]3(O)C(O)=C(C(N)=O)C(=O)[C@@H](N(C)C)[C@@H]3[C@@H](O)[C@@H]21 [CP305] read fitted potency 8492 nM (inhibitor, partial curve, poor fit). With C[C@@H]1c2cccc(O)c2C(O)=C2C(=O)[C@@]3(O)C(O)=C(C(N)=O)C(=O)[C@@H](N(C)C)[C@@H]3[C@@H](O)[C@@H]21 [CP203] the assay gave fitted potency 6012 nM (inhibitor, partial curve, poor fit). With C[C@@H]1c2cccc(O)c2C(O)=C2C(=O)[C@@]3(O)C(O)=C(C(N)=O)C(=O)[C@@H](N(C)C)[C@@H]3[C@@H](O)[C@@H]21 [GB4] the assay gave fitted potency 5358 nM (inhibitor, partial curve). C[C@@H]1c2cccc(O)c2C(O)=C2C(=O)[C@@]3(O)C(O)=C(C(N)=O)C(=O)[C@@H](N(C)C)[C@@H]3[C@@H](O)[C@@H]21 [AA1029] read fitted potency 11220 nM (inhibitor, single point). C[C@@H]1c2cccc(O)c2C(O)=C2C(=O)[C@@]3(O)C(O)=C(C(N)=O)C(=O)[C@@H](N(C)C)[C@@H]3[C@@H](O)[C@@H]21 [CP269] read fitted potency 19011 nM (inhibitor, single point). C[C@@H]1c2cccc(O)c2C(O)=C2C(=O)[C@@]3(O)C(O)=C(C(N)=O)C(=O)[C@@H](N(C)C)[C@@H]3[C@@H](O)[C@@H]21 [3D7] gave fitted potency 11220 nM (inhibitor, partial curve).

With C[C@@H]1c2cccc(O)c2C(O)=C2C(=O)[C@@]3(O)C(O)=C(C(N)=O)C(=O)[C@@H](N(C)C)[C@@H]3[C@@H](O)[C@@H]21 [DIV30] the assay gave fitted potency 8492 nM (inhibitor, partial curve).

Some entries from above, unchanged:

{"compound": "CCCCOc1ccc(CC(=O)NO)cc1", "condition": "PC26", "fitted potency (nM)": "4548", "curve as filed": "inhibitor, single point"}
{"compound": "C[C@@H]1c2cccc(O)c2C(O)=C2C(=O)[C@@]3(O)C(O)=C(C(N)=O)C(=O)[C@@H](N(C)C)[C@@H]3[C@@H](O)[C@@H]21", "condition": "CP305", "fitted potency (nM)": "8492", "curve as filed": "inhibitor, partial curve, poor fit"}
{"compound": "CSCCC(N)C(=O)O", "stereo": "stereo not drawn", "condition": "CP201", "fitted potency (nM)": "21331", "curve as filed": "inhibitor, partial curve, poor fit"}